# Measured values published in the supplement of paper PMC3682954.
# Where a name gives a salt, the structure may show the parent alone. ± gives the standard deviation of the averaged measurements. Some of the results follow. Single values are uncertain, as repeats are few or missing.
# System: RAW 264.7
# Experiment: cell viability (MTT) relative to vehicle control; higher = more viable cells
# Conditions: stimulus: HMGB1 5 ug/ml, 18 h
# [1] = compound concentration: 1 ug/ml
Compound,cell viability (compound concentration: 3 uM) [%],cell viability [1] [%]
Cc1cccc(C#Cc2ccccc2)n1 [6-Methyl-2-(phenylethynyl)pyridine hydrochloride],112,
c1ccc(C(NCc2cccnc2)(c2ccccc2)c2ccccc2)cc1,89.3,
C=CCN1CCc2c(cc(O)c(O)c2Br)[C@@H](c2ccccc2)C1 [R(+)-6-Bromo-APB hydrobromide],83.1,
COc1ccc(C(=O)Nc2ccn([C@H]3C[C@H](O)[C@@H](CO)O3)c(=O)n2)cc1 [N4-Anisoyl-2'-deoxycytidine],,106
C[C@@H]1C[C@H]2[C@@H]3C[C@H](F)C4=CC(=O)C(Cl)=C[C@]4(C)[C@@]3(F)[C@@H](O)C[C@]2(C)[C@@]1(O)C(=O)CO,106,
Cc1cn(C2OC(CO)C(O)C2O)c(=S)[nH]c1=O (configuration not stated) [5-Methyl-2-thiouridine],,98.6
O=c1cc(-c2ccc(O)c(O)c2)oc2cc(O[C@@H]3O[C@H](CO)[C@@H](O)[C@H](O)[C@H]3O)cc(O)c12 [Luteolin-7-glucoside],,93.3
COc1c(-c2ccc(O)c(O)c2)oc2cc(O)cc(O)c2c1=O [Quercetin 3-methyl ether],,93.6
Nc1ccc(S(=O)(=O)Nc2ccnn2-c2ccccc2)cc1 [Sulfaphenazole],116 ± 16,
Nc1ccc(S(=O)(=O)Nc2ccnn2-c2ccccc2)cc1,109,
O=C(NCC(O)CO)c1c(I)c(C(=O)NCC(O)CO)c(I)c(N(CCO)C(=O)CO)c1I (configuration not stated) [Ioversol],111,
CO/N=C(\C(=O)N[C@@H]1C(=O)N2C(C(=O)O)=C(COC(N)=O)CS[C@H]12)c1ccco1 [Cefuroxime sodium salt],104,
CO/N=C(\C(=O)N[C@@H]1C(=O)N2C(C(=O)O)=C(COC(N)=O)CS[C@H]12)c1ccco1,105,
N[C@@H](CS(=O)(=O)O)C(=O)O [L-Cysteic acid monohydrate],,102
Nc1nc2[nH]c(=O)cnc2c(=O)[nH]1 [Isoxanthopterin],95.2,
CC(C)(C)[C@]1(O)CCN2C[C@H]3c4ccccc4CCc4cccc(c43)[C@@H]2C1 [(+)-Butaclamol hydrochloride],97.1,
CC(C)(C)[C@]1(O)CCN2C[C@H]3c4ccccc4CCc4cccc(c43)[C@@H]2C1 (racemic) [(±)-Butaclamol hydrochloride],96.2,
CC(C)(C)[C@]1(O)CCN2C[C@H]3c4ccccc4CCc4cccc(c43)[C@@H]2C1 [Butaclamol (+)],119,
CC1Cc2ccccc2N1NC(=O)c1ccc(Cl)c(S(N)(=O)=O)c1 (configuration not stated) [Indapamide],101 ± 13,
CC1Cc2ccccc2N1NC(=O)c1ccc(Cl)c(S(N)(=O)=O)c1 (configuration not stated),101,
CCC(=O)c1c(O)cc(O)cc1O,104,

Compound,cell viability (compound concentration: 3 uM) [%],cell viability [1] [%]
Nc1ncnc2c1nc(Sc1ccc(Cl)cc1)n2C1OC2COP(=O)(O)O[C@@H]2[C@@H]1O (some centres not stated) [8-(4-Chlorophenylthio)-cAMP sodium],101,
COc1ccc2cc(C(C)C(=O)O)ccc2c1 (configuration not stated),106,
CC(C)C[C@@H]1NC(=O)[C@H](CCCN)NC(=O)[C@H](C(C)C)NC(=O)[C@H](Cc2ccc(O)cc2)N[C@@H](CCC(=O)O)C(=O)N[C@@H](CC(N)=O)C(=O)[C@@H](Cc2ccccc2)NC(=O)[C@H](Cc2ccccc2)NC(=O)[C@@H]2CCCN2C(=O)[C@@H](Cc2ccccc2)NC1=O,48.8,
"O=c1cc(-c2ccc(O)cc2)oc2cccc(O)c12 [4',5-Dihydroxyflavone]",,88.6
CC(=O)Nc1ncc([N+](=O)[O-])s1,105,
O=C(O)C1=CCCNC1 [Guvacine hydrochloride],107,
Cc1cc(CC(=O)O)n(C)c1C(=O)c1ccc(Cl)cc1,114,
Cc1cc(CC(=O)O)n(C)c1C(=O)c1ccc(Cl)cc1 [Zomepirac sodium salt],111,
NCCNC(=O)c1ncsc1-c1cccc(F)c1 [Ro 41-1049 hydrochloride],135,
CCCCCCCCCCCCCCCC(=O)O[C@@H]1[C@@H](O)[C@@H](O)[C@@H]([C@H](NC(=O)[C@@H]2C[C@@H](CCC)CN2C)[C@H](C)Cl)O[C@@H]1SC [Clindamycin palmitate],109,
CCCCCCCCCCCCCCCC(=O)O[C@@H]1[C@@H](O)[C@@H](O)[C@@H]([C@H](NC(=O)[C@@H]2C[C@@H](CCC)CN2C)[C@H](C)Cl)O[C@@H]1SC,104,
COC(=O)CC[C@@H](C)[C@H]1CC[C@H]2[C@@H]3[C@H](O)C[C@@H]4C[C@H](O)CC[C@]4(C)[C@H]3C[C@H](O)[C@]12C [Methyl cholate],,97.2
CC[C@H]1OC(=O)[C@H](C)[C@@H](O[C@H]2C[C@@](C)(OC)[C@@H](O)[C@H](C)O2)[C@H](C)[C@@H](O[C@@H]2O[C@H](C)C[C@H](N(C)C)[C@H]2O)[C@](C)(O)C[C@@H](C)/C(=N\OCOCCOC)[C@H](C)[C@@H](O)[C@]1(C)O [Roxithromycin],96.1 ± 17,
CC[C@H]1OC(=O)[C@H](C)[C@@H](O[C@H]2C[C@@](C)(OC)[C@@H](O)[C@H](C)O2)[C@H](C)[C@@H](O[C@@H]2O[C@H](C)C[C@H](N(C)C)[C@H]2O)[C@](C)(O)C[C@@H](C)/C(=N\OCOCCOC)[C@H](C)[C@@H](O)[C@]1(C)O,102,
CN1CCc2cc3c(cc2C(=O)Cc2ccc4c(c2C1)OCO4)OCO3 [Protopine],,94.8
CCc1cccc(N(C)C(=N)Nc2cccc3ccccc23)c1,93.1,
"Nc1nc2c(c(=O)[nH]1)N=C(CNc1ccc(C(=O)N[C@@H](CCC(=O)O)C(=O)O)cc1)CN2 [Dihydrofolic acid, 90%]",,87.5
Nc1nc(F)nc2c1ncn2[C@@H]1O[C@H](CO)[C@@H](O)[C@@H]1O [Fludarabine],108,
C=C1CC[C@H](O)C/C1=C/C=C1\CCC[C@]2(C)[C@@H]([C@H](C)CCCC(C)(C)O)CC[C@@H]12 [Calcifediol],111,
Nc1nc(=O)c2nc(CNc3ccc(C(=O)N[C@@H](CCC(=O)O)C(=O)O)cc3)cnc2[nH]1,100,
Nc1nc(=O)c2nc(CNc3ccc(C(=O)N[C@@H](CCC(=O)O)C(=O)O)cc3)cnc2[nH]1 [Folic acid],114,

# A portion of the results above:
Compound,cell viability (compound concentration: 3 uM) [%],cell viability [1] [%]
CCCCCCCCCCCCCCCC(=O)O[C@@H]1[C@@H](O)[C@@H](O)[C@@H]([C@H](NC(=O)[C@@H]2C[C@@H](CCC)CN2C)[C@H](C)Cl)O[C@@H]1SC [Clindamycin palmitate],109,
CCCCCCCCCCCCCCCC(=O)O[C@@H]1[C@@H](O)[C@@H](O)[C@@H]([C@H](NC(=O)[C@@H]2C[C@@H](CCC)CN2C)[C@H](C)Cl)O[C@@H]1SC,104,
COC(=O)CC[C@@H](C)[C@H]1CC[C@H]2[C@@H]3[C@H](O)C[C@@H]4C[C@H](O)CC[C@]4(C)[C@H]3C[C@H](O)[C@]12C [Methyl cholate],,97.2
CC[C@H]1OC(=O)[C@H](C)[C@@H](O[C@H]2C[C@@](C)(OC)[C@@H](O)[C@H](C)O2)[C@H](C)[C@@H](O[C@@H]2O[C@H](C)C[C@H](N(C)C)[C@H]2O)[C@](C)(O)C[C@@H](C)/C(=N\OCOCCOC)[C@H](C)[C@@H](O)[C@]1(C)O [Roxithromycin],96.1 ± 17,
CC[C@H]1OC(=O)[C@H](C)[C@@H](O[C@H]2C[C@@](C)(OC)[C@@H](O)[C@H](C)O2)[C@H](C)[C@@H](O[C@@H]2O[C@H](C)C[C@H](N(C)C)[C@H]2O)[C@](C)(O)C[C@@H](C)/C(=N\OCOCCOC)[C@H](C)[C@@H](O)[C@]1(C)O,102,
CN1CCc2cc3c(cc2C(=O)Cc2ccc4c(c2C1)OCO4)OCO3 [Protopine],,94.8
CCc1cccc(N(C)C(=N)Nc2cccc3ccccc23)c1,93.1,
"Nc1nc2c(c(=O)[nH]1)N=C(CNc1ccc(C(=O)N[C@@H](CCC(=O)O)C(=O)O)cc1)CN2 [Dihydrofolic acid, 90%]",,87.5
Nc1nc(F)nc2c1ncn2[C@@H]1O[C@H](CO)[C@@H](O)[C@@H]1O [Fludarabine],108,
C=C1CC[C@H](O)C/C1=C/C=C1\CCC[C@]2(C)[C@@H]([C@H](C)CCCC(C)(C)O)CC[C@@H]12 [Calcifediol],111,
